# In all, about 33,000 sequences were measured (“E-score (-0.5 to 0.5)”: median about -0.0059, highest 2% from about 0.26 on). The list shows a part of the results.
# Molecular target: T1, Cin5 (UniProt P40917)
# T1 sequence: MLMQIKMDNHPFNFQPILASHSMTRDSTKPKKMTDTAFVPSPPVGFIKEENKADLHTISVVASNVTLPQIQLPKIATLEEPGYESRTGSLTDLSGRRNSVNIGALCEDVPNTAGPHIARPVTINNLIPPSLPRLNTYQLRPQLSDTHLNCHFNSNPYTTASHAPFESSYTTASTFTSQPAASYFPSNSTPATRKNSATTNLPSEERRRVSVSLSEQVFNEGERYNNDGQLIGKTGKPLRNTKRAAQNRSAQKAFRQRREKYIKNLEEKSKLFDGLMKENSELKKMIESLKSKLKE
# Test: PBM E-score (8-mer binding enrichment) (E-score (-0.5 to 0.5)); higher = stronger / more preferred TF binding
# Conditions: protein concentration: 100 nM; construct: GST-full length
# Procedure, shortened: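 Detection of bound protein used fluorescent anti-GST, with scans normalised by masliner. The proteins were GST-tagged yeast transcription factors applied at about 100-200 nM to universal all-10-mer Agilent arrays made double-stranded by primer extension. Each ungapped eight-base word, pooled with its reverse complement, was scored with an E-score from the Universal PBM Analysis Suite.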
row,Sequence,PBM E-score
1,ACGGCTTA,0.164
2,CGCACACC,-0.0711
3,AGACACGA,0.0347
4,TGACTGAA,-0.0895
5,AACTAGAG,0.00264
6,ATCTACCG,0.096
7,ACAATCTA,0.0868
8,GGGATGCA,-0.1
9,CATCTGGG,-0.0703
10,GCTTAGCC,-0.0819
11,CCGAGTGA,0.091
12,GACTCGCC,-0.306
13,GATACTCA,0.139
14,ACTAGAGG,-0.255
15,GATCTAAA,0.0626
16,GGGAGCGA,-0.196
17,ATCACTCA,0.135
18,TTAGGCAA,-0.083
19,CCATACGG,0.0183
20,ACAACACG,0.125
21,AGATTTAT,0.12
22,AACATAAA,0.0668
23,GGGGACGA,-0.205
24,AATTACAA,0.203
25,CCGGCTAA,-0.0334

row,Sequence,PBM E-score
1,CTGGGACA,-0.193
2,AACGCACT,-0.037
3,TAGCGCAA,0.102
4,GCGTATTA,0.0794
5,GTAGCGCA,0.00531
6,GGCAAGCC,-0.26
7,AAACTTCT,0.113
8,AATTTGTG,0.154
9,AAGGACAA,0.00528
10,CGGCTTAG,-0.0489
11,ACTCCCTA,-0.167
12,CCTAACAC,0.115
13,AGTACGCC,-0.271
14,ACGGTCTC,-0.227
15,ATTAGTCG,0.193
16,CACATCAG,-0.0698
17,GGGTAGTA,-0.108
18,CCATCGCG,0.206
19,GCATTTAA,0.151
20,GAAGTCCA,-0.133
21,AGAAGGCA,-0.123
22,CCGAGCAC,-0.0314
23,AGCGCCGC,-0.124
24,GTCGTCGA,-0.18
25,CACCCGAA,0.102

# As a working copy, some entries already given.
row,Sequence,PBM E-score
6,GGCAAGCC,-0.26
7,AAACTTCT,0.113
8,AATTTGTG,0.154
9,AAGGACAA,0.00528
10,CGGCTTAG,-0.0489
11,ACTCCCTA,-0.167
12,CCTAACAC,0.115

# The listing continues.

row,Sequence,PBM E-score
1,AATGCCGA,-0.0682
2,ACGAAATG,0.139
3,GGCGAAAA,0.0799
4,AGCAGAGA,0.0498
5,ACGCTGTA,0.0419
6,ACGTAGGA,-0.0756
7,CTTTAGAA,-0.0675
8,CTGCCGCA,-0.21
9,CTATAATC,0.194
10,GCCCAGGA,-0.178
11,TAACTATA,0.109
12,GCGGCAGC,-0.167
13,GACTAGCA,-0.123
14,AATCGAAT,0.237
15,GCTGGATA,-0.0319
16,ATCTGCAC,0.0151
17,CATGTAGA,0.0846
18,GACTTTCC,-0.107
19,AGACGATG,-0.00995
20,CGTGACAG,-0.179
21,CACCACAC,0.00236
22,ATCCGACA,-0.119
23,AGCGCGGG,0.156
24,CAACATTG,0.111
25,CCGAAGCA,0.0749

# In another format: results already given.
row | Sequence | PBM E-score
1 | AATGCCGA | -0.0682
2 | ACGAAATG | 0.139
3 | GGCGAAAA | 0.0799
4 | AGCAGAGA | 0.0498

# (listing goes on)

row,Sequence,PBM E-score
1,AACCGTCC,-0.107
2,ATTAAGAG,-0.0971
3,ACCAGCCC,-0.151
4,GATGCCAC,-0.105
5,GGTGTATA,-0.256
6,AGTTTCGC,0.0693
7,ACCTTAAC,0.0676
8,GATGCCTA,-0.229
9,GCGGTGCC,-0.28
10,GACTTACA,-0.121
11,CACTAGTA,0.165
12,ACCTATAA,-0.0275
13,AACAGATA,0.057
14,CTGCTGTC,-0.0623
15,ATCGAGTC,0.0696
16,TAAATCGA,0.0908
17,ACCAGGCC,-0.134
18,CAGTGGGG,-0.231
19,GAGGAAAC,-0.0442
20,CCCGCTAA,-0.127
21,CATACATC,0.127
22,CAAAGCCA,-0.0284
23,GGGTACCC,-0.418
24,CCCAGCAC,-0.0984
25,AATACTGG,0.129

row,Sequence,PBM E-score
1,GCGTCCTA,-0.221
2,CCCGGCCG,-0.199
3,CGTAAAGA,-0.149
4,CAGACCCA,-0.0333
5,CTGCTAGA,-0.136
6,GATTGCGA,0.0955
7,CATATCAG,0.0807
8,AGATTCTG,-0.141
9,CGGTTGAC,-0.0501
10,CAAGCTAA,0.00309
11,ACGCCAGA,-0.124
12,AGACTCCG,-0.121
13,ATACGGGA,-0.0908
14,CGATTGAC,0.121
15,CCTATATA,0.0157
16,ACCCGACA,0.00507
17,CAACTTCG,0.112
18,CTTCCTGA,0.0966
19,AGCGTCCA,-0.162
20,AATATTTG,0.246
21,CGCGGTGC,-0.135
22,AAACAGTG,0.169
23,AGGGGAGG,0.0111
24,ATCCACAT,0.0955
25,CGAACGAC,0.0935

row,Sequence,PBM E-score
1,CCTGACAA,-0.00087
2,AGGCTGTC,-0.245
3,TACGGCAA,0.185
4,CCAGGGTC,-0.232
5,CCCGCATC,-0.0563
6,GATCCGCA,0.0421
7,ATTCCAGG,0.116
8,AACCCCAA,0.221
9,ACCTGTAC,-0.117
10,CCCGTCCA,-0.11
11,AGACCTCG,-0.0891
12,GATAAGTA,0.0537
13,GAATGGTC,-0.0653
14,ACAATGGT,-0.0691
15,CCATAGTC,-0.0985
16,AAGCGATT,0.0516
17,AGCCGACG,-0.0574
18,TCAAGCAA,-0.0131
19,CCGCGTGA,0.114
20,CTTCGGGA,-0.095
21,CGAGATCA,0.149
22,CCACTCCA,-0.0551
23,CATTGCCA,0.0347
24,ACTTCGTG,0.0515
25,TATCGTCA,0.0394

row,Sequence,PBM E-score
1,CGAAAATC,0.111
2,AGCTACAT,-0.0113
3,ACGCGGCT,-0.0786
4,AGTACCTG,-0.042
5,CCATTCTA,0.0523
6,ACACCGGA,-0.0407
7,GCCTGCGC,-0.224
8,GACGTAAA,0.103
9,ACTTTCAA,0.0815
10,GTAACCAA,0.206
11,GATAAGAC,0.0478
12,CAGTGAAC,0.205
13,CAGGTGTA,0.0935
14,GCGCGGAA,0.192
15,GCTGCGTA,-0.042
16,GAGACGCA,-0.0714
17,GTCCAATA,0.00916
18,GAAGGGCC,-0.29
19,AAGAAAAT,0.159
20,CGCAATCA,0.0971
21,CAGGTACG,-0.209
22,CTATAAGC,0.095
